These are yes or no findings as the source states them, for the method shown. Tags and fused reporters may be left off the sequences shown.
Molecular target: T1, purified processed mouse Lefty1 protein (mouse) (UniProt Q64280)
T1 sequence: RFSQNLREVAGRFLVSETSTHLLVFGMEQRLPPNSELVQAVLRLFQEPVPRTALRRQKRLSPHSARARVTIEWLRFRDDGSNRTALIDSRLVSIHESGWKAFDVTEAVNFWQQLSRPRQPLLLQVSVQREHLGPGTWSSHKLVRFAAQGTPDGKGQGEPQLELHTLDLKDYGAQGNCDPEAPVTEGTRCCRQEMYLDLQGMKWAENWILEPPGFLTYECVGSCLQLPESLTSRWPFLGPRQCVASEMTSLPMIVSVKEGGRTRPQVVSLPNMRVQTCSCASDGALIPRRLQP
Assay: co-IP; purified mLefty1 (10 μg/ml) mixed with soluble Cripto/His (5 μg/ml) or VEGF-D/His (5 μg/ml) in PBS; cross-linked with 1 mM DTSSP for 1 h on ice; mLefty1 immunoprecipitated with anti-mLefty1 antibody; anti-His blot (Figure 3D); both purified

binding: no binding (tested: 5 μg/ml)
B1: purified mouse VEGF-D/His protein (ligand, UniProt P97946 94-210)
chain: FAATFYDTETLKVIDEEWQRTQCSPRETCVEVASELGKTTNTFFKPPCVNVFRCGGCCNEEGVMCMNTSTSYISKQLFEISVPLTSVPELVPVKIANHTGCKCLPTGPRHPYSIIRR
